Measured values: the supplement of paper PMC10060354, “Discovery of a small molecule ligand of FRS2 that inhibits invasion and tumor growth” (Cellular Oncology, 2022)
Single values are uncertain, as repeats are few or missing.

By UniProt entry, the sequences of proteins in these tests, tags left out. Where a name states a change or a piece, a line headed by the entry shows the natural chain unless it says otherwise.
UniProt Q9Y2N7: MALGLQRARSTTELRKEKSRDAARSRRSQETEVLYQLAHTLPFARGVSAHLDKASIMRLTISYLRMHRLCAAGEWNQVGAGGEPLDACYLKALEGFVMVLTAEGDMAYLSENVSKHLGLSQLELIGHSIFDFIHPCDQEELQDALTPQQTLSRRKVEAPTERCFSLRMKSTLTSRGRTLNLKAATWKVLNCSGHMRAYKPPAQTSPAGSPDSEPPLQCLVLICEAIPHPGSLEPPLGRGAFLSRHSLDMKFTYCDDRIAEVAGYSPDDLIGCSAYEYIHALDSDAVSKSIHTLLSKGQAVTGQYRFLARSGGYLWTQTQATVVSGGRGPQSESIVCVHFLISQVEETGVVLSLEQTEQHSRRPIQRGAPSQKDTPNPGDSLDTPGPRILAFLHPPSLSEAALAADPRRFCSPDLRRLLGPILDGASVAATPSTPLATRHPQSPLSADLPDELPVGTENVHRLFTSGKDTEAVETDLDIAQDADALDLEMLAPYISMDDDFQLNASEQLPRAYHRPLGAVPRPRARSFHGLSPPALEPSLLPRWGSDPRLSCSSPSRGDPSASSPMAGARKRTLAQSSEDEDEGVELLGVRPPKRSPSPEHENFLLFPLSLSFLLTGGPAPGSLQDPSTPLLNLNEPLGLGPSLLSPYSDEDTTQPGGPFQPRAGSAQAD
UniProt A6NFQ2: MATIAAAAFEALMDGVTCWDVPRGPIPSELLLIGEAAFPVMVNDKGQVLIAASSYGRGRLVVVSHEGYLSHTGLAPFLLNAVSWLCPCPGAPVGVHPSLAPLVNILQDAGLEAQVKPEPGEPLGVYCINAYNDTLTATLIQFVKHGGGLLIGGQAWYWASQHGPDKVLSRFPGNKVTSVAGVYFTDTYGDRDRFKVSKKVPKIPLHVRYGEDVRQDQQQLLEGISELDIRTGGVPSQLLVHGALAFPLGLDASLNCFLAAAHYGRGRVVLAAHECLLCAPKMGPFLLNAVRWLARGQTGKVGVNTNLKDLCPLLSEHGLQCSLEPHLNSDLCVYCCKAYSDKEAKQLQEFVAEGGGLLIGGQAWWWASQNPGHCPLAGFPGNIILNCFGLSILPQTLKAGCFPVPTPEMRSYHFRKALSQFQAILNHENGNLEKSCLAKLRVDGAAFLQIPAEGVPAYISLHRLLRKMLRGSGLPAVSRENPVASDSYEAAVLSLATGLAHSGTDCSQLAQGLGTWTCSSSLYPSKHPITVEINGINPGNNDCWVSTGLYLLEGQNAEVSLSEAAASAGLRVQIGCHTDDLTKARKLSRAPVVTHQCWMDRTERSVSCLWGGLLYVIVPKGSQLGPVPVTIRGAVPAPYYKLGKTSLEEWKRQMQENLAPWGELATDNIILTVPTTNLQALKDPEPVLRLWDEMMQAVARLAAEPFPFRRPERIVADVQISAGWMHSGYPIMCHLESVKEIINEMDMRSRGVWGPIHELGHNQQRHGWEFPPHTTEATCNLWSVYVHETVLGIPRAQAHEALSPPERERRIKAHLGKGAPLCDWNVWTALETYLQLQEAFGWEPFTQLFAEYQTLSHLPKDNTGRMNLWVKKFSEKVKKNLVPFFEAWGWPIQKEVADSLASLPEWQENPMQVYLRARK
UniProt O75822, whole entry: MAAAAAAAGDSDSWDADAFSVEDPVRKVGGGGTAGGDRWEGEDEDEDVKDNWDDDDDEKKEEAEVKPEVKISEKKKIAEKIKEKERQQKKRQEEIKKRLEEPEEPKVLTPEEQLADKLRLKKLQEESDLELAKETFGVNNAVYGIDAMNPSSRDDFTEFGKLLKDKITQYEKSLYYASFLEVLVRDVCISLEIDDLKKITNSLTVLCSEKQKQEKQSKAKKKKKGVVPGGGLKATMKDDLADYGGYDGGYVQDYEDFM
UniProt Q14195, whole entry: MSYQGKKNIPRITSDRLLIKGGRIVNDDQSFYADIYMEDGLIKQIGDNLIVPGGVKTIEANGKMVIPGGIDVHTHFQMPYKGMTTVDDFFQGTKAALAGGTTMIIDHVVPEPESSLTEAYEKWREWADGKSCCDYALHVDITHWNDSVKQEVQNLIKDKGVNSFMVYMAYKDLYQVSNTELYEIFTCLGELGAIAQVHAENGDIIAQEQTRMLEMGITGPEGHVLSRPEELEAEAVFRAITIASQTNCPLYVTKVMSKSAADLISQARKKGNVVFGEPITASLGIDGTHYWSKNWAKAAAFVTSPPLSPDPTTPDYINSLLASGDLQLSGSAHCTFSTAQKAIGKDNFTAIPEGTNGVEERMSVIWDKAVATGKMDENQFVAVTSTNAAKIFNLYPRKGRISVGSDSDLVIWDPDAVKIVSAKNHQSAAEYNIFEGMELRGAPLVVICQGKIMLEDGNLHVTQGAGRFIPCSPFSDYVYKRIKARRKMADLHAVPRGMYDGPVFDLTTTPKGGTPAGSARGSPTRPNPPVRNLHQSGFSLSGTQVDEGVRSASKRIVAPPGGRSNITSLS
UniProt O75923: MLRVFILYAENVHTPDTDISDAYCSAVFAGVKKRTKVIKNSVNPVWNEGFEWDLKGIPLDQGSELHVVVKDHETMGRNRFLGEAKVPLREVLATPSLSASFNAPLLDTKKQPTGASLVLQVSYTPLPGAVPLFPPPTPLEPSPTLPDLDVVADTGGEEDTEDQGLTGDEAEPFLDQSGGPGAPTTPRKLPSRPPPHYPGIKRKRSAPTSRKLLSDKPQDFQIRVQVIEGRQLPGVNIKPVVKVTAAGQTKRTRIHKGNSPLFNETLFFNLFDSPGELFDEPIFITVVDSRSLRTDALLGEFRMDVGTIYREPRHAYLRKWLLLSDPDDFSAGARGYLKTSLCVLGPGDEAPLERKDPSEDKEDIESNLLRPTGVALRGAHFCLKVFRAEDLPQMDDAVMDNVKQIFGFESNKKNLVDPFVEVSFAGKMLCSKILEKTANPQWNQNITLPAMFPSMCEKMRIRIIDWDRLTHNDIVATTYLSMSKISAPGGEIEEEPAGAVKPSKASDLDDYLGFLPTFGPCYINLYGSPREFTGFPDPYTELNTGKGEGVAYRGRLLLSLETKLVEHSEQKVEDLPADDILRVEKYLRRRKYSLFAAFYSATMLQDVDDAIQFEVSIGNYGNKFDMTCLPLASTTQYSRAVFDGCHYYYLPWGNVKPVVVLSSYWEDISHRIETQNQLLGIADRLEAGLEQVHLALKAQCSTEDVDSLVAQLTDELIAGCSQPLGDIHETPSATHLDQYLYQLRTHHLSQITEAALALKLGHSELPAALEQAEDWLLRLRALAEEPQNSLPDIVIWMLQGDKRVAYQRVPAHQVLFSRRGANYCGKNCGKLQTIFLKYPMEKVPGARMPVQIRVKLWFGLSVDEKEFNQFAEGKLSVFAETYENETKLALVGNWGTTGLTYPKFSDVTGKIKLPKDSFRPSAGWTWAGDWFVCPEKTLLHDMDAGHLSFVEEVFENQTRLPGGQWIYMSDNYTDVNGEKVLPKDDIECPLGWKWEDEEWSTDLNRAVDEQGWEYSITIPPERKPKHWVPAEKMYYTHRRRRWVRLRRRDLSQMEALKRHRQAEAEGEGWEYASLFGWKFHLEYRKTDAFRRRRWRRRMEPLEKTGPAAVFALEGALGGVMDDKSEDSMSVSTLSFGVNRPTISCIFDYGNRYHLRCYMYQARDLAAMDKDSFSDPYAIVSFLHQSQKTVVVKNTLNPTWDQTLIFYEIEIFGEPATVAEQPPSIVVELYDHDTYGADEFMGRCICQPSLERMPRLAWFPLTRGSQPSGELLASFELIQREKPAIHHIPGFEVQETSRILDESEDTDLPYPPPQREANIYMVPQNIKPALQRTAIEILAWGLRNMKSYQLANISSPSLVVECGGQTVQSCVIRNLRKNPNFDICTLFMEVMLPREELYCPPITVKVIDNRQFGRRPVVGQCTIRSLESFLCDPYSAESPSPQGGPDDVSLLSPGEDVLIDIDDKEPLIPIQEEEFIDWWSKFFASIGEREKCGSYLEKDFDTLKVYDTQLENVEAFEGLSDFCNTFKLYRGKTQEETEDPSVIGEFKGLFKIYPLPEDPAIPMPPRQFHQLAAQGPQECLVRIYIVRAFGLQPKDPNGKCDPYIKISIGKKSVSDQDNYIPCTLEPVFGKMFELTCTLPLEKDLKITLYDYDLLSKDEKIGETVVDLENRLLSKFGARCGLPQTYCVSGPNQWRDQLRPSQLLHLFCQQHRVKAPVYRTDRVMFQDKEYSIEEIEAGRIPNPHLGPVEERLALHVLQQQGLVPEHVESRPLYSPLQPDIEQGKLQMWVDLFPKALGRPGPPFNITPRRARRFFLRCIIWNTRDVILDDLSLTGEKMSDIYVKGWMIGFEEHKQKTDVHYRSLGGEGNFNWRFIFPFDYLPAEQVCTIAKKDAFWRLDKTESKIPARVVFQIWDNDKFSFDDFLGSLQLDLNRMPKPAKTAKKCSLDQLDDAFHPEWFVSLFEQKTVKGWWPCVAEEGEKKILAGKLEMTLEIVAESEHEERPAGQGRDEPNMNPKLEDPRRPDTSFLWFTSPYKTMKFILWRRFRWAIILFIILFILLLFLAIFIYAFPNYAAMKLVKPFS
UniProt Q07666, whole entry: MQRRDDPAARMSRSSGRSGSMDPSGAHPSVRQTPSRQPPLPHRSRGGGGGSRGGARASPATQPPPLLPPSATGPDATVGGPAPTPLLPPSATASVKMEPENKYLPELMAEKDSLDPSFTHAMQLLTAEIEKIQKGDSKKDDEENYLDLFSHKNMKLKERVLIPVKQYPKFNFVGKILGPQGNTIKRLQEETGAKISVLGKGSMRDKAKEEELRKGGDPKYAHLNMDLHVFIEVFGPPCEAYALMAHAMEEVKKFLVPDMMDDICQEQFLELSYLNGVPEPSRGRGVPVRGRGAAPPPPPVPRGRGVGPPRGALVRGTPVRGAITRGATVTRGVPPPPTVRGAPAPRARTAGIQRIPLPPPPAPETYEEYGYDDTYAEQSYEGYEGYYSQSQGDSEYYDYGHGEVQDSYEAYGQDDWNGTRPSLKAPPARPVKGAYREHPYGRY
UniProt Q96AD5: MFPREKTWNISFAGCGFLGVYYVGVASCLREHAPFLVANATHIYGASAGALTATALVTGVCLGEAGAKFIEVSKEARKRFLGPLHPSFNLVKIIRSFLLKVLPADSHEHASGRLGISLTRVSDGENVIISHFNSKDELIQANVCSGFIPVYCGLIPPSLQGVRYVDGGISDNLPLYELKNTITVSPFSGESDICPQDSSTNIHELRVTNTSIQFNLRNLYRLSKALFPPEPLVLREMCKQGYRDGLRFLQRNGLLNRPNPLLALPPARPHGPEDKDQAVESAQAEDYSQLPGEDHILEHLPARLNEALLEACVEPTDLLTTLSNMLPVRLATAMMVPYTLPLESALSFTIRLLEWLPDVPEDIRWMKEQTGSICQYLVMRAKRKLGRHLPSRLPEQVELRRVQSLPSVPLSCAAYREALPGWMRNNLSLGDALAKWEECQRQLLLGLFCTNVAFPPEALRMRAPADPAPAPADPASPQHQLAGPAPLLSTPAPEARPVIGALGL
UniProt Q9HCS7: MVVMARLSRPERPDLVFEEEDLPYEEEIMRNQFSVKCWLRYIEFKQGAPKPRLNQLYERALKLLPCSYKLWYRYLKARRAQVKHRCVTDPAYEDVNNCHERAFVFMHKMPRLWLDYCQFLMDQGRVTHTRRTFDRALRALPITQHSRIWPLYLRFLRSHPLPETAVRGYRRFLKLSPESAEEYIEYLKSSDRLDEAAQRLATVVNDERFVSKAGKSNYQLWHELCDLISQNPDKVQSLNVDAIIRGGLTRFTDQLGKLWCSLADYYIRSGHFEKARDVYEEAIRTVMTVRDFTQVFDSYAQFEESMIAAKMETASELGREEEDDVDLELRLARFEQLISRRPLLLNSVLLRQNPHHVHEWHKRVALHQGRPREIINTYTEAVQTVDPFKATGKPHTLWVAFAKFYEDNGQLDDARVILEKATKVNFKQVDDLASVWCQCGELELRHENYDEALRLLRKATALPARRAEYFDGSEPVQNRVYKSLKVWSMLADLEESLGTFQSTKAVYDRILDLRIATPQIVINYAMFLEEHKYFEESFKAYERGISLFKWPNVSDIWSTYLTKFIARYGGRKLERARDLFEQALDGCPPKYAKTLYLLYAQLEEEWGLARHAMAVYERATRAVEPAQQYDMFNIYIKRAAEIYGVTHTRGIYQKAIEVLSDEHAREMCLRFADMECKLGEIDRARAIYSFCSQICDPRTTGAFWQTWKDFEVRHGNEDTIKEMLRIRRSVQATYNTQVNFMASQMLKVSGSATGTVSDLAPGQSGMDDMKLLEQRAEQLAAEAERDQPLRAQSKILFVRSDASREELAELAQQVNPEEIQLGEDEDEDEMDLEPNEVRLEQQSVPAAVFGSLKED
UniProt Q92871: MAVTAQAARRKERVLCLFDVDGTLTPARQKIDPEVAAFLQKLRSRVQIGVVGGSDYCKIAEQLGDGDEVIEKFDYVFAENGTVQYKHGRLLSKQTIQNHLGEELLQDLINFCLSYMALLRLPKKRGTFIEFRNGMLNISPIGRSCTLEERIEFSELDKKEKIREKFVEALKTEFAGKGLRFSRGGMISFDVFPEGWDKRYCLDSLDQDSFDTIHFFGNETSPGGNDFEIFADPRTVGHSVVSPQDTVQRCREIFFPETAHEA

Compound: [O-][N+](C(C1=C(C(O)=C2)NC(C(C=C3)=CC=C3Cl)C4C1C=CC4)=C2Cl)=O
Assay: melting temperature shift (compound 7 minus DMSO); higher = compound stabilises the protein
Conditions: 10 µM
Method: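 Thermal proteome profiling (TMT mass spectrometry) in intact DAOY medulloblastoma cells or DAOY lysates treated with 10 µM compound 7 or DMSO, heated at 10 temperatures from 40.5 to 73.8 °C for 3 min. Melting curves were fitted with the Bioconductor TPP package, and the melting point difference between compound and vehicle is reported per protein (single curve per condition).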

[1] = system: DAOY cell lysate, treatment time: 20 min, 4 °C
[2] = system: intact DAOY cells, treatment time: 90 min, 37 °C

Target	melting temperature shift [1]	melting temperature shift [2]
STAG2 (UniProt Q8N3U4)	-0.123 °C	-0.291 °C
ME1 (UniProt P48163)	-0.606 °C	-0.153 °C
MARS (UniProt P56192)	-1.6 °C	-0.746 °C
UniProt Q8NEV1	–	-0.415 °C
UniProt P55085	-1.2 °C	–
BAX (UniProt Q07812)	2.59 °C	–
UniProt Q8NFI4	–	-0.016 °C
UniProt Q9Y2N7	–	-1.06 °C
FAM114A1 (UniProt Q8IWE2)	-0.927 °C	0.442 °C
UniProt A6NFQ2	-0.344 °C	1.98 °C
C16ORF58 (UniProt Q96GQ5)	-1.11 °C	-0.0684 °C
UniProt P05089	-3.73 °C	–
MARK3 (UniProt P27448)	1.03 °C	0.578 °C
EIF3J (UniProt O75822)	-0.27 °C	0.179 °C
LPCAT1 (UniProt Q8NF37)	0.851 °C	-1.29 °C
UniProt P05976	–	-0.0458 °C
UniProt Q9NZN3	-0.62 °C	-0.583 °C
MP68 (UniProt P56378)	1.01 °C	0.303 °C
ADAM17 (UniProt P78536)	-0.241 °C	0.406 °C
UniProt P36507	-0.464 °C	-1.32 °C
FTH1 (UniProt P02794)	0.686 °C	–
CTDP1 (UniProt Q9Y5B0)	-0.165 °C	-1.58 °C
NDE1 (UniProt Q9NXR1)	-0.392 °C	1.2 °C
UniProt Q9BQ13	0.566 °C	2.48 °C

Target	melting temperature shift [1]	melting temperature shift [2]
POP7 (UniProt O75817)	–	-2.17 °C
PRMT5 (UniProt O14744)	-0.347 °C	-1.53 °C
RSBN1L (UniProt Q6PCB5)	-1.03 °C	-1.41 °C
UniProt Q14195	-0.664 °C	-0.409 °C
CLNS1A (UniProt P54105)	1.53 °C	0.75 °C
SBF1 (UniProt O95248)	-1.12 °C	–
VDAC2 (UniProt P45880)	3.38 °C	-0.697 °C
CCDC53 (UniProt Q9Y3C0)	-1.07 °C	-1.23 °C
UniProt P51449	–	-0.898 °C
UniProt O75923	–	0.164 °C
UniProt P0DME0	–	1.75 °C
UniProt Q9GZV4	-1.82 °C	–
THOC7 (UniProt Q6I9Y2)	0.102 °C	2.47 °C
ARHGEF1 (UniProt Q92888)	0.00449 °C	0.164 °C
MRPS15 (UniProt P82914)	1.54 °C	-1.03 °C
ARMC1 (UniProt Q9NVT9)	-0.656 °C	0.139 °C
UniProt P62491	0.64 °C	2.38 °C
UniProt Q8NFT2	-1.36 °C	–
TBCEL (UniProt Q5QJ74)	-1.69 °C	-0.207 °C
AK1 (UniProt P00568)	-0.0765 °C	-0.902 °C
CNOT4 (UniProt O95628)	-1.4 °C	0.597 °C
UniProt Q5SW96	-1.48 °C	–
COL12A1 (UniProt Q99715)	-0.769 °C	-0.61 °C
LOXL2 (UniProt Q9Y4K0)	-1.97 °C	-0.0117 °C

Target	melting temperature shift [1]	melting temperature shift [2]
ACAA2 (UniProt P42765)	1.84 °C	0.814 °C
PRKCSH (UniProt P14314)	2.24 °C	–
UniProt Q15678	-0.174 °C	-0.409 °C
AGTRAP (UniProt Q6RW13)	5.44 °C	–
UniProt Q7L9B9	1.86 °C	–
UniProt Q9H7X7	0.981 °C	–
WWTR1 (UniProt Q9GZV5)	0.142 °C	-6.8 °C
RAD51AP1 (UniProt Q96B01)	0.841 °C	–
UniProt Q8IYT4	–	0.235 °C
RC3H1 (UniProt Q5TC82)	-2.45 °C	–
JUP (UniProt P14923)	-0.853 °C	–
CAV2 (UniProt P51636)	0.959 °C	–
FAM177A1 (UniProt Q8N128)	-2.29 °C	–
UniProt Q9BX67	2.26 °C	–
SNRPA (UniProt P09012)	-0.0318 °C	-0.194 °C
RPP25L (UniProt Q8N5L8)	0.475 °C	-0.28 °C
ARSA (UniProt P15289)	-1.08 °C	–
KHDRBS1 (UniProt Q07666)	1.04 °C	0.249 °C
UniProt Q8IVL6	1.27 °C	0.171 °C
NPEPL1 (UniProt Q8NDH3)	-0.664 °C	-0.91 °C
MEAF6 (UniProt Q9HAF1)	–	0.299 °C
NQO2 (UniProt P16083)	-0.815 °C	–
SMARCD1 (UniProt Q96GM5)	-0.87 °C	-1.28 °C
UniProt P51161	0.537 °C	-1.71 °C

Target	melting temperature shift [1]	melting temperature shift [2]
BRCC3 (UniProt P46736)	-0.595 °C	-2.54 °C
RMDN3 (UniProt Q96TC7)	1.11 °C	1.98 °C
ALDH16A1 (UniProt Q8IZ83)	1.53 °C	-0.366 °C
UniProt Q96DU9	–	-0.065 °C
RILPL1 (UniProt Q5EBL4)	-1.63 °C	–
NUDT21 (UniProt O43809)	-0.476 °C	0.249 °C
FMNL2 (UniProt Q96PY5)	–	0.489 °C
DPH2 (UniProt Q9BQC3)	-0.88 °C	1.13 °C
IDH3A (UniProt P50213)	1.3 °C	-0.615 °C
UniProt P28482	-0.439 °C	0.118 °C
ARRB2 (UniProt P32121)	-0.242 °C	2.98 °C
KDSR (UniProt Q06136)	–	-0.705 °C
DHRS1 (UniProt Q96LJ7)	–	9.31 °C
NT5C (UniProt Q8TCD5)	-3.05 °C	-1.65 °C
MGRN1 (UniProt O60291)	–	-0.101 °C
UniProt Q96AD5	-0.369 °C	-0.675 °C
VPS33A (UniProt Q96AX1)	0.645 °C	0.326 °C
PPIE (UniProt Q9UNP9)	1.72 °C	1.24 °C
UniProt P58876	–	-0.494 °C
DNAJA3 (UniProt Q96EY1)	1.54 °C	0.419 °C
UniProt Q8ND61	–	5.45 °C
MRPS5 (UniProt P82675)	1.21 °C	-1.39 °C
UniProt Q6ISB3	–	0.352 °C
XAB2 (UniProt Q9HCS7)	-1.22 °C	0.0102 °C

Target	melting temperature shift [1]	melting temperature shift [2]
SMC4 (UniProt Q9NTJ3)	-0.534 °C	-1.02 °C
ANAPC1 (UniProt Q9H1A4)	-0.419 °C	0.521 °C
AKR1B1 (UniProt P15121)	-0.496 °C	-0.0617 °C
RPL37A (UniProt P61513)	0.609 °C	-0.0987 °C
COL4A3BP (UniProt Q9Y5P4)	-0.237 °C	0.0188 °C
UROD (UniProt P06132)	0.0875 °C	1.41 °C
UniProt Q96A72	–	1.32 °C
EIF2B3 (UniProt Q9NR50)	-0.18 °C	-1.25 °C
RFX1 (UniProt P22670)	-0.0956 °C	1.37 °C
DERA (UniProt Q9Y315)	0.108 °C	1.86 °C
UniProt O95057	–	-2.84 °C
RABEP2 (UniProt Q9H5N1)	-0.684 °C	-0.33 °C
RAVER1 (UniProt Q8IY67)	-0.494 °C	-0.0753 °C
CMAS (UniProt Q8NFW8)	0.0719 °C	-0.795 °C
CKS1B (UniProt P61024)	-2.59 °C	–
UniProt Q96PU4	2.08 °C	–
CD55 (UniProt P08174)	-0.967 °C	2.06 °C
UniProt Q9NXF1	-0.112 °C	1.56 °C
MSMO1 (UniProt Q15800)	0.0219 °C	-1.16 °C
FNDC3A (UniProt Q9Y2H6)	0.244 °C	-0.814 °C
PMM1 (UniProt Q92871)	-0.404 °C	0.454 °C

Random excerpt: 6 records from the list
Target	melting temperature shift [1]	melting temperature shift [2]
UniProt Q14195	-0.664 °C	-0.409 °C
UniProt P58876	–	-0.494 °C
UniProt P51161	0.537 °C	-1.71 °C
PRMT5 (UniProt O14744)	-0.347 °C	-1.53 °C
MEAF6 (UniProt Q9HAF1)	–	0.299 °C
SMC4 (UniProt Q9NTJ3)	-0.534 °C	-1.02 °C

Look-ups from the results shown.
melting temperature shift [1], PMM1 (UniProt Q92871) is entered as -0.404 °C
melting temperature shift [1], UniProt Q96PU4 is entered as 2.08 °C
